PubChem BioAssay AID188 (DTP/NCI, 2004)
The mice bore no tumour; each value counts animals alive of those treated. Counts of survivors are from the toxicity check (mostly the fifth day) where no day follows; animals may have died later. Schedules are NCI's codes, read here as Q, the interval in days (D) or hours (H), X, the number of doses. Some molecules as drawn cover several salts, stereoisomers or complexes of the source; a dose is that of the sample tested. Some entries hold several experiments; their values stand side by side, smallest first.

Tested on: CD2F1 mice, nontumored, toxicity/survival
Test: NCI In Vivo Anticancer Drug Screen. Data for tumor model Nontumored Animals (Toxicity Test) in CD2F1 (CDF1) mice

## Cc1cc(NCCCCCCNc2cc(C)nc3ccc(N)cc23)c2cc(N)ccc2n1
dose: 9.4 mg/kg/injection, schedule: Q01DX009 (ip), vehicle: saline with Tween-80
  survivor count: 8 of 8
dose: 10.7 mg/kg/injection, schedule: Q01DX005 (iv), vehicle: water
  survivor count: 0 of 10 and 1 of 8
dose: 10.7 mg/kg/injection, schedule: Q01DX009 (ip), vehicle: water
  survivor count: 10 of 10
dose: 10.7 mg/kg/injection, schedule: Q01DX009 (sc), vehicle: water
  survivor count: 10 of 10
dose: 10.9 mg/kg/injection, schedule: Q01DX005 (iv), vehicle: saline with Tween-80
  survivor count: 10 of 10 and 8 of 8
dose: 10.9 mg/kg/injection, schedule: Q01DX009 (ip), vehicle: saline with Tween-80
  survivor count: 10 of 10
dose: 10.9 mg/kg/injection, schedule: Q01DX009 (sc), vehicle: saline with Tween-80
  survivor count: 10 of 10 and 8 of 8
dose: 12.5 mg/kg/injection, schedule: Q01DX009 (ip), vehicle: water
  survivor count: 8 of 8
dose: 14.2 mg/kg/injection, schedule: Q01DX005 (iv), vehicle: water
  survivor count: 0 of 10
dose: 14.2 mg/kg/injection, schedule: Q01DX009 (ip), vehicle: water
  survivor count: 10 of 10
dose: 14.2 mg/kg/injection, schedule: Q01DX009 (sc), vehicle: water
  survivor count: 10 of 10
dose: 14.5 mg/kg/injection, schedule: Q01DX005 (iv), vehicle: saline with Tween-80
  survivor count: 10 of 10 and 8 of 8
dose: 14.5 mg/kg/injection, schedule: Q01DX009 (ip), vehicle: saline with Tween-80
  survivor count: 10 of 10 and 8 of 8
dose: 14.5 mg/kg/injection, schedule: Q01DX009 (sc), vehicle: saline with Tween-80
  survivor count: 10 of 10 and 8 of 8
dose: 18.8 mg/kg/injection, schedule: Q01DX009 (ip), vehicle: saline with Tween-80
  survivor count: 8 of 8
dose: 19.0 mg/kg/injection, schedule: Q01DX005 (iv), vehicle: water
  survivor count: 0 of 10
dose: 19.0 mg/kg/injection, schedule: Q01DX009 (ip), vehicle: water
  survivor count: 10 of 10
dose: 19.0 mg/kg/injection, schedule: Q01DX009 (sc), vehicle: water
  survivor count: 10 of 10
dose: 19.4 mg/kg/injection, schedule: Q01DX005 (iv), vehicle: saline with Tween-80
  survivor count: 10 of 10 and 8 of 8
dose: 19.4 mg/kg/injection, schedule: Q01DX009 (ip), vehicle: saline with Tween-80
  survivor count: 10 of 10 and 8 of 8
dose: 19.4 mg/kg/injection, schedule: Q01DX009 (sc), vehicle: saline with Tween-80
  survivor count: 8 of 8
dose: 25.0 mg/kg/injection, schedule: Q01DX009 (ip), vehicle: water
  survivor count: 3 of 8
dose: 25.3 mg/kg/injection, schedule: Q01DX005 (iv), vehicle: water
  survivor count: 0 of 10
dose: 25.3 mg/kg/injection, schedule: Q01DX009 (ip), vehicle: water
  survivor count: 9 of 10
dose: 25.3 mg/kg/injection, schedule: Q01DX009 (sc), vehicle: water
  survivor count: 8 of 8
dose: 25.8 mg/kg/injection, schedule: Q01DX005 (iv), vehicle: saline with Tween-80
  survivor count: 10 of 10 and 8 of 8
dose: 25.8 mg/kg/injection, schedule: Q01DX009 (ip), vehicle: saline with Tween-80
  survivor count: 10 of 10 and 8 of 8
dose: 25.8 mg/kg/injection, schedule: Q01DX009 (sc), vehicle: saline with Tween-80
  survivor count: 10 of 10 and 8 of 8
dose: 33.8 mg/kg/injection, schedule: Q01DX005 (iv), vehicle: water
  survivor count: 0 of 10
dose: 33.8 mg/kg/injection, schedule: Q01DX009 (ip), vehicle: water
  survivor count: 4 of 8
dose: 33.8 mg/kg/injection, schedule: Q01DX009 (sc), vehicle: water
  survivor count: 10 of 10
dose: 34.4 mg/kg/injection, schedule: Q01DX005 (iv), vehicle: saline with Tween-80
  survivor count: 8 of 9, 10 of 10, 8 of 8
dose: 34.4 mg/kg/injection, schedule: Q01DX009 (ip), vehicle: saline with Tween-80
  survivor count: 8 of 8
dose: 34.4 mg/kg/injection, schedule: Q01DX009 (sc), vehicle: saline with Tween-80
  survivor count: 10 of 10 and 8 of 8
dose: 37.5 mg/kg/injection, schedule: Q01DX009 (ip), vehicle: saline with Tween-80
  survivor count: 8 of 8
dose: 45.0 mg/kg/injection, schedule: Q01DX005 (iv), vehicle: water
  survivor count: 0 of 10
dose: 45.0 mg/kg/injection, schedule: Q01DX009 (ip), vehicle: water
  survivor count: 0 of 8
dose: 45.0 mg/kg/injection, schedule: Q01DX009 (sc), vehicle: water
  survivor count: 10 of 10
dose: 45.9 mg/kg/injection, schedule: Q01DX005 (iv), vehicle: saline with Tween-80
  survivor count: 6 of 10, 7 of 8, 9 of 10
dose: 45.9 mg/kg/injection, schedule: Q01DX009 (ip), vehicle: saline with Tween-80
  survivor count: 7 of 8 and 8 of 8
dose: 45.9 mg/kg/injection, schedule: Q01DX009 (sc), vehicle: saline with Tween-80
  survivor count: 10 of 10 and 8 of 8
dose: 50.0 mg/kg/injection, schedule: Q01DX009 (ip), vehicle: water
  survivor count: 0 of 8
dose: 60.0 mg/kg/injection, schedule: Q01DX005 (iv), vehicle: water
  survivor count: 0 of 10
dose: 60.0 mg/kg/injection, schedule: Q01DX009 (ip), vehicle: water
  survivor count: 0 of 8
dose: 60.0 mg/kg/injection, schedule: Q01DX009 (sc), vehicle: water
  survivor count: 10 of 10
dose: 75.0 mg/kg/injection, schedule: Q01DX009 (ip), vehicle: saline with Tween-80
  survivor count: 8 of 8
dose: 100.0 mg/kg/injection, schedule: Q01DX009 (ip), vehicle: water
  survivor count: 0 of 8
